Values quoted from earlier work as cited in patent publication US20180110747A1, “USE OF THIA OXO COMPOUNDS FOR LOWERING APO C3” (Pronova Biopharma Norge AS, priority 2015, published 2018).
Where two headings read alike, the source gives them in different places. At least one compound was matched to its structure with a doubt left.

What was measured:
[1] = tested on: plasma apoC-III and other lipid parameters; conditions: cited from earlier work
[2] = tested on: plasma apoC-III and other lipid parameters; conditions: cited from earlier work; remark: listed apart in the source
[3] = TG 500-2000 mg/dl, 4 g/day, 12 weeks
[4] = statin stable, mixed dyslipidemia, TG 200-499, 4 g/day, 12 weeks

For `CC/C=C\C/C=C\C/C=C\C/C=C\C/C=C\CCCC(=O)OCC` [Vascepa, eicosapentaenoic acid ethyl ester], the “median apoC-III level after treatment” value ([1]; 4 g/day for 12 weeks, reduced from baseline 25.6 mg/dl) is given as 19.7 mg/dL, the “ApoC-III, median % change from baseline” value [1, 3] is given as −10.1% and the “HDL-C, median % change from baseline” value [1, 3] is given as −3.5%. The “LDL-C, median % change from baseline” value [1, 3] was −4.5%, the “Non-HDL-C, median % change from baseline” value [1, 3] was −7.7% and the “TG, median % change from baseline” value [1, 3] was −26.6%. For the same compound, the “VLDL-C, median % change from baseline” value [1, 3] was −25.2%, the “median apoC-III level after treatment” value ([2]; 4 g/day for 12 weeks, reduced from baseline 15.2 mg/dl) was 13.7 mg/dL and the “Apo B, median % change from baseline” value [2, 4] was −2.2%. The “ApoC-III, median % change from baseline” value [2, 4] was −9.4%, the “LDL-C, median % change from baseline” value [2, 4] was 1.5% and the “Non-HDL-C, median % change from baseline” value [2, 4] was −5.0%. The “TG, median % change from baseline” value [2, 4] was −17.5% and the “VLDL-C, median % change from baseline” value [2, 4] was −12.1%.
